Data on one molecule can be found in PMC7596570.

These are yes or no findings as the source states them, for the method shown. Binding seen in cells or lysates may run through a third protein. Some entries that bind do so weakly or less than the wild type.

In the experiment the target is TRAIL Death Receptor 5 (DR5) (human (endogenous in HCT116)), O14763. Briefly: co-IP; DR5-DISC IP: AMG 655 (agonistic anti-DR5 antibody)-conjugated Dynabeads added to HCT116 cells (untransfected, or transfected with FLAG-RALB constructs, or SC/siRALB) for the indicated times (1 h, 3 h); lysis in 0.2% NP-40, 20 mM Tris, 150 mM NaCl, 10% glycerol, pH 7.4; beads captured magnetically, western blot. The following applies: remark: other sources report otherwise. Background: A western blot detects proteins with antibodies after separation by electrophoresis.

B1: Caspase-8, Q14790 1-479 (enzyme)
chain: MDFSRNLYDIGEQLDSEDLASLKFLSLDYIPQRKQEPIKDALMLFQRLQEKRMLEESNLSFLKELLFRINRLDLLITYLNTRKEEMERELQTPGRAQISAYRVMLYQISEEVSRSELRSFKFLLQEEISKCKLDDDMNLLDIFIEMEKRVILGEGKLDILKRVCAQINKSLLKIINDYEEFSKERSSSLEGSPDEFSNGEELCGVMTISDSPREQDSESQTLDKVYQMKSKPRGYCLIINNHNFAKAREKVPKLHSIRDRNGTHLDAGALTTTFEELHFEIKPHDDCTVEQIYEILKIYQLMDHSNMDCFICCILSHGDKGIIYGTDGQEAPIYELTSQFTGLKCPSLAGKPKVFFIQACQGDNYQKGIPVETDSEEQPYLEMDLSSPQTRYIPDEADFLLGMATVNNCVSYRNPAEGTWYIQSLCQSLRERCPRGDDILTILTEVNYEVSNKDDKKNMGKQMPQPTFTLRKKLVFPSD
As to B1, the binding entry is recorded as “binds”.
